In PMC4795774:
Results are given in words; binding and its absence hold for the method and conditions named. Binding seen in cells or lysates may run through a third protein. Tags and fused reporters may be left off the sequences shown.

T1: AtNHX6, GFP-tagged (NHX6-GFP) (Arabidopsis thaliana) (UniProt Q8RWU6)
T1 sequence: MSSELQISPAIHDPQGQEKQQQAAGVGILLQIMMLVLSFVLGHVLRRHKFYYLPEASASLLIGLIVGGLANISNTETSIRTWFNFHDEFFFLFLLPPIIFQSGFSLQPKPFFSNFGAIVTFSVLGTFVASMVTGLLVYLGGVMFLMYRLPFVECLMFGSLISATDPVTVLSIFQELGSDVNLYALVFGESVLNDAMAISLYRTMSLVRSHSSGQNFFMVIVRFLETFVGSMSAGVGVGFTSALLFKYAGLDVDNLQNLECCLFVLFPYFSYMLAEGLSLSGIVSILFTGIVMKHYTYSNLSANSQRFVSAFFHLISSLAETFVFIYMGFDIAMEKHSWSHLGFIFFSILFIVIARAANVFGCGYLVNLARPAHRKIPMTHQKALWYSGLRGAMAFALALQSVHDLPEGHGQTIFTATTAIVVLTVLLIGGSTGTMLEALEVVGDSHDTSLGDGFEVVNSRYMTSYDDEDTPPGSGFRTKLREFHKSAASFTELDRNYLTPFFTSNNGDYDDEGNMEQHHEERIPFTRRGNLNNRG

T2: AtNHX5, GFP-tagged (NHX5-GFP) (Arabidopsis thaliana) (UniProt Q8S396)
T2 sequence: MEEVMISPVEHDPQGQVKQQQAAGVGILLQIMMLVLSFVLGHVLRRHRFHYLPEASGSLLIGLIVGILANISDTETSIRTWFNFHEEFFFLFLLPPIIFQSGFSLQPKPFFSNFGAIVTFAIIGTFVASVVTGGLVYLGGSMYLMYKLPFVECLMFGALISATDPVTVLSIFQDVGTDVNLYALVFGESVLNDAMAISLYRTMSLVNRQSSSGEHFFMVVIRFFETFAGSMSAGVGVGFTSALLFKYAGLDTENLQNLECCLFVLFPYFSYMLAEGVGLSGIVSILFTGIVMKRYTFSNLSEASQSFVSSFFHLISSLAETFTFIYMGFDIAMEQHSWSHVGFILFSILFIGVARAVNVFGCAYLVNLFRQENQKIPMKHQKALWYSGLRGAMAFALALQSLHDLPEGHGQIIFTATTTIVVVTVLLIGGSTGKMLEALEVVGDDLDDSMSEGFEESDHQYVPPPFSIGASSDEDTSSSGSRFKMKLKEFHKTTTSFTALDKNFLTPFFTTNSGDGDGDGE

B1: SYP22 (protein, UniProt P93654 1-268)
chain: MSFQDLESGRGRSTRKFNGGRQDSTQAVASGIFQINTGVSTFQRLVNTLGTPKDTPELREKLHKTRLHIGQLVKDTSAKLKEASETDHQSGVNPSKKIADAKLARDFQAVLKEFQKAQQTAAERETTYTPFVPQSALPSSYTAGEVDKVPEQRAQLQESKRQELVLLDNEIAFNEAVIEEREQGIQEIHQQIGEVNEIFKDLAVLVNDQGVMIDDIGTHIDNSRAATSQGKSQLVQAAKTQKSNSSLTCLLLVIFGIVLLIVIIVLAA
B2: VTI11 (protein, UniProt Q9SEL6 1-221)
chain: MSDVFDGYERQYCELSASLSKKCSSAISLDGEQKKQKLSEIKSGLENAEVLIRKMDLEARTLPPNLKSSLLVKLREFKSDLNNFKTEVKRITSGQLNAAARDELLEAGMADTKTASADQRARLMMSTERLGRTTDRVKDSRRTMMETEEIGVSILQDLHGQRQSLLRAHETLHGVDDNIGKSKKILTDMTRRMNKNKWTIGAIIIALIAAIFIILYFKLTK
B3: SYP51 (protein, UniProt Q9SA23 1-232)
chain: MASSSDSWMRAYNEALKLSEEINGMISERSSSAVTGPDAQRRASAIRRKITIFGNKLDSLQSLLAEIHGKPISEKEMNRRKDMVGNLRSKANQMANALNMSNFANRDSLLGPDIKPDDSMSRVTGMDNQGIVGYQRQVMREQDEGLEQLEGTVMSTKHIALAVSEELDLQTRLIDDLDYHVDVTDSRLRRVQKSLAVMNKNMRSGCSCMSMLLSVLGIVGLAVVIWMLVKYM

What follows are binders tested against T1, AtNHX6, GFP-tagged (NHX6-GFP) (Arabidopsis thaliana) (assay: co-IP; 12-day-old seedlings cross-linked with 1 mM dithiobis(succinimidyl propionate) in PBS pH 7.4, 1 hr at RT; membrane fraction (20,000 x g pellet), detergent extracts; NHX5-GFP or NHX6-GFP precipitated with anti-GFP (micro-MACS GFP-tagged protein isolation kit); immunoblot with antibodies against SYP22, VTI11 or SYP51).

Binder	binding
B1	no binding
B2	no binding
B3	no binding

What follows are binders tested against T2, AtNHX5, GFP-tagged (NHX5-GFP) (Arabidopsis thaliana) in the same assay as above.

Binder	binding
B1	no binding
B2	no binding
B3	no binding
